Assay [1] deals with T1, GST-SH3_(Boi1) (S. cerevisiae) (UniProt P38041).
T1 sequence: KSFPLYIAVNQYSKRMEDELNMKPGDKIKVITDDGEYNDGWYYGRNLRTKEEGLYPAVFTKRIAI
Briefly: pull-down.

Chains of the proteins cited; added tags and fusions are not shown.
UniProt P19658: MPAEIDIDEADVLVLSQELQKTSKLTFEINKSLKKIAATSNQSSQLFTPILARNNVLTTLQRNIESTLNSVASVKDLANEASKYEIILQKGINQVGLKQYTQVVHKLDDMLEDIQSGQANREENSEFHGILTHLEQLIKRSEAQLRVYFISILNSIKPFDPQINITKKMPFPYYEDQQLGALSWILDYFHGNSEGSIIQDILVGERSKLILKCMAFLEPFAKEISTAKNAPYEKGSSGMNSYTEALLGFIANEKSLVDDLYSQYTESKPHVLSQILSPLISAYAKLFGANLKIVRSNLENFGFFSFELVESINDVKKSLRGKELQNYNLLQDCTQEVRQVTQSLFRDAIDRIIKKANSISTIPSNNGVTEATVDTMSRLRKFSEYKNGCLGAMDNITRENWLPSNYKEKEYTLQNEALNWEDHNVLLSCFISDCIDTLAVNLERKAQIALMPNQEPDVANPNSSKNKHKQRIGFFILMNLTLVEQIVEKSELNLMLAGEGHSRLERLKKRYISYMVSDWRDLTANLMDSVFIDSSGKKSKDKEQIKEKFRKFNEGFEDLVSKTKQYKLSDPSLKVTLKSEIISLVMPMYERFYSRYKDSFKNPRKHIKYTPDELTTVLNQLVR
UniProt P38261: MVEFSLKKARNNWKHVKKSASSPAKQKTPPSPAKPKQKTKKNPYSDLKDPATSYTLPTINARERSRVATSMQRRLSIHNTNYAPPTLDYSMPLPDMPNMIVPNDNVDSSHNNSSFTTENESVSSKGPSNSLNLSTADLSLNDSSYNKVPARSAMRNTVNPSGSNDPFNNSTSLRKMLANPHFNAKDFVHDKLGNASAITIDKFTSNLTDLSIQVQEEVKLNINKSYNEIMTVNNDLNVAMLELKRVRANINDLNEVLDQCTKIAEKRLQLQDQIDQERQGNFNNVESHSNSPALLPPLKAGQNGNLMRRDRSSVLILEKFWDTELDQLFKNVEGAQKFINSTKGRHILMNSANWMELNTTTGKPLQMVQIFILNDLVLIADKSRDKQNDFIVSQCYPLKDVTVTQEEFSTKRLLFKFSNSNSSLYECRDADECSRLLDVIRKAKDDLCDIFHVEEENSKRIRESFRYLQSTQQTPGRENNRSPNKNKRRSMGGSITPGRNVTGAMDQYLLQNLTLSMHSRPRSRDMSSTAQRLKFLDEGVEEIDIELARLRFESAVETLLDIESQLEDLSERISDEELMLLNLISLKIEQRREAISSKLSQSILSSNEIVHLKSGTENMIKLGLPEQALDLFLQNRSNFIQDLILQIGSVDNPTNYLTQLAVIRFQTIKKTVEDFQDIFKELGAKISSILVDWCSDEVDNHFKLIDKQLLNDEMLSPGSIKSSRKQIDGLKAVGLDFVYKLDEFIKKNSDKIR
UniProt P19073: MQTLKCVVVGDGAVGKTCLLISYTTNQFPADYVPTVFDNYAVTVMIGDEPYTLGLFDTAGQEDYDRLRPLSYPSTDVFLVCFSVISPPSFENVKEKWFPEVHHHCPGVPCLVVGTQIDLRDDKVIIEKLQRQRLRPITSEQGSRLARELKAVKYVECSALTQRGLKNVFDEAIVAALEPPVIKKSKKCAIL

Assay [2] addresses T2, Boi2CRU (S. cerevisiae) (UniProt P39969).
T2 sequence: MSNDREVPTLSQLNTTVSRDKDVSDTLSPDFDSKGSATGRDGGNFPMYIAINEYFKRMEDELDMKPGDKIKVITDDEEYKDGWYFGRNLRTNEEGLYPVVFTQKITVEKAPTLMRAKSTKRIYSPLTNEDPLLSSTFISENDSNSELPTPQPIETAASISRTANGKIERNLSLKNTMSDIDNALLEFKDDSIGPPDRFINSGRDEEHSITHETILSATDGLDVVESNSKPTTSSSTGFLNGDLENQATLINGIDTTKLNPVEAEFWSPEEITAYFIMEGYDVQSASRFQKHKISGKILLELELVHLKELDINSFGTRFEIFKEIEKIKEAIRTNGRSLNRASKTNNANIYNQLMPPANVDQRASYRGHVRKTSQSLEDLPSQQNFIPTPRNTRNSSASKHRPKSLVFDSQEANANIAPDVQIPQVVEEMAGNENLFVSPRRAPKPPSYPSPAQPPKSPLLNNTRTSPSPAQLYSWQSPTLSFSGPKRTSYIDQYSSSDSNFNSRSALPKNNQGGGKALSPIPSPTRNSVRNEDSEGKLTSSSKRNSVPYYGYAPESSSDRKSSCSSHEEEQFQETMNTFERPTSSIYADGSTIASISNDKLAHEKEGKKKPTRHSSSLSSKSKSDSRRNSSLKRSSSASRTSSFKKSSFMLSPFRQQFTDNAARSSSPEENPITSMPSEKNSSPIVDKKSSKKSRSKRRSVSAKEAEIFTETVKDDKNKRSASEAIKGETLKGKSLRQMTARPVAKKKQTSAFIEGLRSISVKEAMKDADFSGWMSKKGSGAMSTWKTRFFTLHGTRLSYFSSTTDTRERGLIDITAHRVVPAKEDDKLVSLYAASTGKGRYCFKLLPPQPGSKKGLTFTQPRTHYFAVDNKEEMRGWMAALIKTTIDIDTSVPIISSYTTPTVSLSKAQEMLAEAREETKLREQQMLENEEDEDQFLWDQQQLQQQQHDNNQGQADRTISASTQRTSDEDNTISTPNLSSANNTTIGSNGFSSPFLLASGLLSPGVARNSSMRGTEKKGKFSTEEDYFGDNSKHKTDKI
Kind of assay: split reporter.

Assay [3] concerns the target T3, Boi1CRU (S. cerevisiae) (UniProt P38041).
T3 sequence: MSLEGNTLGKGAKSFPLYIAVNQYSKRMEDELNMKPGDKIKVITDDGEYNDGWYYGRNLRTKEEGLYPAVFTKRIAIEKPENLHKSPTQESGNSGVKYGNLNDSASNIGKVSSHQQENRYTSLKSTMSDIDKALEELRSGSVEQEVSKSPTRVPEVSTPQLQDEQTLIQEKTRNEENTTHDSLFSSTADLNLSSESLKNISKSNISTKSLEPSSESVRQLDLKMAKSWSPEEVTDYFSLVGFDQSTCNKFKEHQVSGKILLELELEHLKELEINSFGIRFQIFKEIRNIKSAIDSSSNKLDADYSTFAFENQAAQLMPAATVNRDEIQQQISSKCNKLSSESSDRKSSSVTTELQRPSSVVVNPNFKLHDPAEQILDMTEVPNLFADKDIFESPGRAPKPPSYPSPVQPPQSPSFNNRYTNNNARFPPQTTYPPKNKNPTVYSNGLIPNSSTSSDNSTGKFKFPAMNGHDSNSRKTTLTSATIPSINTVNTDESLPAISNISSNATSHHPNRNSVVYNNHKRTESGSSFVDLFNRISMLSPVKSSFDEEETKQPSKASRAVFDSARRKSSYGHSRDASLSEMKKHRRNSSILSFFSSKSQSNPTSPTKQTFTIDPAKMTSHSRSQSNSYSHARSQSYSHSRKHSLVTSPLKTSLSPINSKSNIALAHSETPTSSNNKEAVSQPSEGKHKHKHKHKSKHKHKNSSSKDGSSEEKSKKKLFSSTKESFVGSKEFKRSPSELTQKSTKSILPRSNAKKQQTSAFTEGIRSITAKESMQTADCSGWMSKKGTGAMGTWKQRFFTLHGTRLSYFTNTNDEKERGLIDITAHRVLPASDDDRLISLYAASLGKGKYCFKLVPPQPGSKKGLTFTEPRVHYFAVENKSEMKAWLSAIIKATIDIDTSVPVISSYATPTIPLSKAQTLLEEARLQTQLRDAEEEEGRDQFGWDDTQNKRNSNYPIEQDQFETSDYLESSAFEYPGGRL
Briefly: split reporter.

In assay [4] the target is PH_(Boi1)CRU (S. cerevisiae) (UniProt P38041). Kind of assay: split reporter.
Assay [5] has as its target T2, Boi2CRU (S. cerevisiae). Kind of assay: split reporter. This is another data set of the same source.
The target of assay [6] is T3, Boi1CRU (S. cerevisiae). Kind of assay: split reporter. The source holds these as a separate data set.
Assay [7] deals with T4, Sec6p CRU fusion (S. cerevisiae) (UniProt P32844).
T4 sequence: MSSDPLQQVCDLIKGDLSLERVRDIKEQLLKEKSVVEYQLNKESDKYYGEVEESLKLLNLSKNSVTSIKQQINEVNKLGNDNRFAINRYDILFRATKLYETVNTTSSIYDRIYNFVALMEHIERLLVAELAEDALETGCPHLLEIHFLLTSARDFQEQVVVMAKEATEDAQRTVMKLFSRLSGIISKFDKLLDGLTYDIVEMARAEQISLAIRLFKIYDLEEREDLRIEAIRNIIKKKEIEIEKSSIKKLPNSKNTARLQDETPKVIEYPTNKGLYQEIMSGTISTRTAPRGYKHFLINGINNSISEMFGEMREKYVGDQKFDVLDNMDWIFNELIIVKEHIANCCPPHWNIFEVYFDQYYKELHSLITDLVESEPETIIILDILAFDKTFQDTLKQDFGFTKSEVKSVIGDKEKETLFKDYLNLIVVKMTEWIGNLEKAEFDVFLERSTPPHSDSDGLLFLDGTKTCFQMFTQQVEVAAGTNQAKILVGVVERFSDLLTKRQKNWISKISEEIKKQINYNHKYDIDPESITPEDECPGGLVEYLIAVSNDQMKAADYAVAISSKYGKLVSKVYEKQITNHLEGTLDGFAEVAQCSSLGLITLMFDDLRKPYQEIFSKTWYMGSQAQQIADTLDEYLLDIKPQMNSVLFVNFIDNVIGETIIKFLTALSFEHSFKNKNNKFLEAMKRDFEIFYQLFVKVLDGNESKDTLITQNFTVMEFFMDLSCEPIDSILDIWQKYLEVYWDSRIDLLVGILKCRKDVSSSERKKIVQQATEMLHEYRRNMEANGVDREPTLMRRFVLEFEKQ
Briefly: split reporter.

Assay [8] concerns the target Exo70p CRU fusion (S. cerevisiae) (UniProt P19658). Kind of assay: split reporter.
Assay [9] deals with T5, Sec8p CRU fusion (S. cerevisiae) (UniProt P32855).
T5 sequence: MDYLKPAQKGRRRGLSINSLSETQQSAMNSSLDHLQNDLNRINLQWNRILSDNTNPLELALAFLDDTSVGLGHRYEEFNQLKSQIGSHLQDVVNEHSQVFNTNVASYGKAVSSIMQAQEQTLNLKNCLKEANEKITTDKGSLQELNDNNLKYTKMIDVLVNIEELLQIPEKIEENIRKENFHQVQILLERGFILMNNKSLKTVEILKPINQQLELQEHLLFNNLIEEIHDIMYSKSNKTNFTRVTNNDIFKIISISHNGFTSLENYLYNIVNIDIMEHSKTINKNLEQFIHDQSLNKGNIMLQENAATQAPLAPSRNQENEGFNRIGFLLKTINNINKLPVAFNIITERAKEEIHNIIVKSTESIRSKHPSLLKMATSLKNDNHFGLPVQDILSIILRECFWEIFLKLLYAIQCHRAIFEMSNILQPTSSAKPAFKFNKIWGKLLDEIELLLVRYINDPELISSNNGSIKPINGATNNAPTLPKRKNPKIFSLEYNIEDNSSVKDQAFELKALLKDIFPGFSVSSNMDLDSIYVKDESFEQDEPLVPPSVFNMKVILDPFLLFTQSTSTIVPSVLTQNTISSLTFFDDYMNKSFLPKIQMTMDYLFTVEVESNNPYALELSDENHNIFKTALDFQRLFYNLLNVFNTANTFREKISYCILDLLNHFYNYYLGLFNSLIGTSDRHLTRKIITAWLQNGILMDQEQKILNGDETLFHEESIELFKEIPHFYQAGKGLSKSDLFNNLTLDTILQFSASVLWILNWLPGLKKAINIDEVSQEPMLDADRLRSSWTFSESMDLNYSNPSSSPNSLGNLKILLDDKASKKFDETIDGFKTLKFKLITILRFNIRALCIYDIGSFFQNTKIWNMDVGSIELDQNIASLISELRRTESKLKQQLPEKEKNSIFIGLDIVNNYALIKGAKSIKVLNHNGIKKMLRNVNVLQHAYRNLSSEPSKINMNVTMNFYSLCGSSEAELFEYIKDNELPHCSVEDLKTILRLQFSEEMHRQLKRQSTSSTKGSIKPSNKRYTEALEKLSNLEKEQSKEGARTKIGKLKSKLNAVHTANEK
Kind of assay: split reporter.

The target in another assay is Exo84CRU (S. cerevisiae) (UniProt P38261). Briefly: split reporter.
Assay [10] concerns the target T6, Boi1Cherry-Cub-GFP (S. cerevisiae) (UniProt P38041).
T6 sequence: T3 sequence
Briefly: split reporter.

These results are taken from paper doi:10.1101/144360 (bioRxiv, 2017).

Read-outs that look alike come from different tables or passages of the source. These are yes or no findings as the source states them, for the method shown. Binding seen in cells or lysates may run through a third protein. Some entries that bind do so weakly or less than the wild type. For some assays here: Sequences can lack the tags named with a protein.

With “9xMYC fusion to Exo84p (from UniProt P38261 1-753)”, the binding result in [1] was “binds”.

On to Nub-Cdc42p (from UniProt P19073 1-191), for which the binding result (with Boi2CRU (S. cerevisiae) [2]; with Boi1CRU (S. cerevisiae) [3]; in [4]) was “binds” in each case.

B1: Nub-Bem1p (protein, UniProt P29366 1-551)
chain: MLKNFKLSKRDSNGSKGRITSADISTPSHDNGSVIKHIKTVPVRYLSSSSTPVKSQRDSSPKNRHNSKDITSPEKVIKAKYSYQAQTSKELSFMEGEFFYVSGDEKDWYKASNPSTGKEGVVPKTYFEVFDRTKPSSVNGSNSSSRKVTNDSLNMGSLYAIVLYDFKAEKADELTTYVGENLFICAHHNCEWFIAKPIGRLGGPGLVPVGFVSIIDIATGYATGNDVIEDIKSVNLPTVQEWKSNIARYKASNISLGSVEQQQQQSITKPQNKSAKLVDGELLVKASVESFGLEDEKYWFLVCCELSNGKTRQLKRYYQDFYDLQVQLLDAFPAEAGKLRDAGGQWSKRIMPYIPGPVPYVTNSITKKRKEDLNIYVADLVNLPDYISRSEMVHSLFVVLNNGFDREFERDENQNNIKTLQENDTATFATASQTSNFASTNQDNTLTGEDLKLNKKLSDLSLSGSKQAPAQSTSGLKTTKIKFYYKDDIFALMLKGDTTYKELRSKIAPRIDTDNFKLQTKLFDGSGEEIKTDSQVSNIIQAKLKISVHDI
B1: the binding entry with Boi2CRU (S. cerevisiae) [5] and in the assay with Boi1CRU (S. cerevisiae) [6] was “binds” each time.

B2: Nub-Boi2p (protein, UniProt P39969 1-1040)
chain: T2 sequence
Regarding B2, the binding result (in assay [7]; in [8]; in assay [9]; with Exo84CRU (S. cerevisiae)) was “binds” throughout.

B3: Nub-Ptc1p (protein, UniProt P35182 1-281)
chain: MSNHSEILERPETPYDITYRVGVAENKNSKFRRTMEDVHTYVKNFASRLDWGYFAVFDGHAGIQASKWCGKHLHTIIEQNILADETRDVRDVLNDSFLAIDEEINTKLVGNSGCTAAVCVLRWELPDSVSDDSMDLAQHQRKLYTANVGDSRIVLFRNGNSIRLTYDHKASDTLEMQRVEQAGGLIMKSRVNGMLAVTRSLGDKFFDSLVVGSPFTTSVEITSEDKFLILACDGLWDVIDDQDACELIKDITEPNEAAKVLVRYALENGTTDNVTVMVVFL
Take B3: in [10], the binding result is recorded as “no binding”.
